Data taken from PubChem BioAssay AID2417 (National Center for Advancing Translational Sciences (NCATS), 2010).
The whole screen tested about 140,000 compounds, of which about 4,300 (3.1%) were called active. The shares of active, inactive and inconclusive entries below differ from those in the screen.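 The calls were made as follows: active = readout at or below -70, meaning at least 70% loss of cells showing the perinucleolar compartment, a nuclear body marking cancer cells; inconclusive = readout between -30 and a set limit; inactive = the rest.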

Experiment: High Content Assay for Compounds that inhibit the Assembly of the Perinucleolar Compartment;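 also: plate controls were DMSO wells for no effect and camptothecin positive control wells for full effect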
Conditions: PC3M PTB-GFP, PNC prevalence imaging, 16 h; at 10 µM; hits give low values
Method in brief: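 PC3M cells stably expressing PTB-GFP, 750–1000 cells/well, treated 16 h at 37 °C with compound (23 nl of library stock), in duplicate. After paraformaldehyde fixation and Hoechst stain, imaged at 20x; PNC prevalence scored by image analysis.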

SMILES | activity change (PNC), negative = inhibition
COc1ccc(CCNC(=O)COc2nsnc2N2CCOCC2)cc1OC | inconclusive: -43.2%
Cc1ccc(NC(=O)Nc2ccccc2)c(Br)c1 | inconclusive: -40.2%
CCOc1ccc2nc(SCCNS(=O)(=O)c3ccccc3)sc2c1 | active: -113%
CC(C)OC(=O)CN1C(=O)C(C)(C)Oc2ccc(C(=O)NC3CC3)cc21 | inconclusive: -59.7%
COc1ccc(C(=O)COC(=O)C(CCCCN2C(=O)C3C4C=CC(C4)C3C2=O)N2C(=O)C3C4C=CC(C4)C3C2=O)cc1 (stereo unspecified) | inactive: 5.01%
COC(=O)C1CSc2[nH]c(=O)sc2C1c1ccc(O)c(OC)c1 (stereo unspecified) | inconclusive: -50.6%
O=C(OCC(=O)c1c[nH]c2ccccc12)c1cccc(O)c1 | inactive: 49.4%
COc1cccc(-c2nn(C)c3sc(C(=O)NCc4ccccn4)cc23)c1 | inconclusive: -35.3%
CCN=C1SC(C(=O)Nc2cccc(C(=O)O)c2)CC(=O)N1CC (stereo unspecified) | inactive: 37.7%
COc1ccc(NC(=S)NNC(=O)C2CC2c2ccc(C)cc2)cc1 (stereo unspecified) | inactive: 23.7%
COc1ccc(N2CCN(C(CNC(=O)C(=O)NCCC3=CCCCC3)c3ccco3)CC2)cc1 (stereo unspecified) | inconclusive: -58.2%
O=C1/C(=C/c2ccccc2)Nc2ccccc21 | inactive: 25.3%
CC(C)(C)c1ccc(S(=O)(=O)N(CCCN2CCOCC2)Cc2cccs2)cc1 | inconclusive: -33.7%
CC(=O)c1c(CC(=O)O)[nH]n(-c2nc3ccccc3s2)c1=O | inactive: -0.152%
CCOc1ccc2nc(NC(=O)CS(=O)(=O)c3ccccc3)sc2c1 | inactive: 14%
O=C(N/N=C/c1ccc2c(c1)OCO2)C(O)c1ccccc1 (stereo unspecified) | inactive: -26.9%
CSc1nsc(SCC(=O)Nc2ccc(C(C)=O)cc2)n1 | inconclusive: -46.8%
Cc1csc(NC(=O)c2cc3c(s2)CCCCC3)n1 | inconclusive: -47.2%
CN(C)CCNC(=O)c1ccc(COCC(F)(F)F)cc1 | inactive: -4.68%
CCOc1ccccc1N1CCN(C(=O)c2cc3c(s2)CCC3)CC1 | inactive: 28.1%
COc1ccc(C(NC(=O)/C=C\c2ccco2)c2ccc(OC)c(OC)c2)cc1 (stereo unspecified) | inconclusive: -45.2%
COc1cccc(CNc2ccc(F)c(Cl)c2)c1O | inactive: 10.7%
CCOC(=O)c1ccc(-n2ccnc2)c(NC(=O)c2ccc(Cl)cc2)c1 | inconclusive: -58.4%

SMILES | activity change (PNC), negative = inhibition
COC(=O)c1ccn(C(=O)c2ccc(Cl)cc2)n1 | inactive: -0.245%
CC1(C)CC(=O)C2=C(C1)NC1=C(C(=O)c3ccccc31)C2c1ccccc1 (stereo unspecified) | inactive: 34.8%
CNC(=O)c1ccc(OCc2ccccc2)c(OC)c1 | active: -107%
CCCCCOP(=O)(c1ccccc1)c1ccccc1 | active: -108%
c1n[nH]c(NCc2ccc3c(c2)OCO3)n1 | active: -81.5%
COC(=O)C(C)N(C(=O)c1cccc(Cl)c1)c1c(C)cccc1C (stereo unspecified) | active: -92.4%
CCn1cc(CN(C)S(=O)(=O)c2ccc3ccccc3c2)c(C)n1 | inconclusive: -56.9%
COc1ccccc1-n1cnnc1SCC(=O)Nc1cccc(S(=O)(=O)N2CCCCC2)c1 | inconclusive: -41.7%
O=C(NNc1nc(-c2ccc(Cl)cc2)cs1)c1ccco1 | inconclusive: -31.2%
C#CCOC(=O)C(NC(=O)c1ccccc1)=C1CCCCC1 | inactive: -18%
O=C(CCSc1ccccc1)NCCN1CCOCC1 | inactive: 11.2%
CCc1ccccc1NC(=O)c1nnn(CC(=O)Nc2cccc(C)c2)c1N | inactive: 20.3%
O=C(CC1(C(F)(F)F)OCCO1)Nc1ccc2c(c1)OCO2 | inactive: -1.35%
C=CCc1c(C)nc(SC)nc1Nc1ccc(C(=O)O)cc1 | inconclusive: -41.1%
Cc1cc(C)cc(-n2c3nc4ccccc4nc3c3c(=O)n(Cc4ccco4)cnc32)c1 | inconclusive: -56.6%
COc1ccc(N/C=C2/CCCCC2=O)cc1 | inactive: 31%
COc1cc(C2NC(=O)C(C#N)=C(S)N2c2ccc(C)cc2)ccc1OC(C)C (stereo unspecified) | inconclusive: -51%
C=CCn1c2ccccc2c2nnc(SC(CC)C(=O)Nc3nc(C)c(C(=O)OCC)s3)nc21 (stereo unspecified) | inconclusive: -42.3%
CCN(CC)S(=O)(=O)c1ccc(N2CCOCC2)c(NC(=O)c2ccc3ccccc3c2)c1 | inactive: -7.67%
O=C(NC(Cc1ccccc1)C(=O)NCc1ccccn1)c1ccco1 (stereo unspecified) | inconclusive: -31.5%
COc1ccccc1-n1cnnc1SCC(=O)NCc1cccs1 | inactive: -5.88%
CC(C)N(C(=O)Cn1c(SCC(=O)N2CCN(c3ccccc3)CC2)nc2ccccc21)C(C)C | inconclusive: -31.2%
COCCCNC(=O)c1c(N)n(-c2cccc(S(N)(=O)=O)c2)c2nc3ccccc3nc12 | inconclusive: -32.7%

Look-ups from the results shown:
Entry for COc1ccc(N/C=C2/CCCCC2=O)cc1 under activity change (PNC), negative = inhibition: inactive: 31%
Entry for CN(C)CCNC(=O)c1ccc(COCC(F)(F)F)cc1 under activity change (PNC), negative = inhibition: inactive: -4.68%
